Results as given in PubChem BioAssay AID248 (DTP/NCI, 2004).
The list is a part of this screen's results and no random one: it is rich in T/C values a quarter to a half above the control, in often repeated tests (any T/C) and in doses without a T/C. Other doses and runs of a compound stand elsewhere. T/C gives the treated animals as a percentage of the vehicle group. Some entries give survivors of the animals treated and no T/C: the source holds a T/C of zero for them, seemingly a mark for toxic or unscored doses. Some doses without a T/C left all or most animals alive at the check, yet need not have been tolerated: survival well below the control is almost never listed, so the zero probably covers shortened survival too. Counts of survivors are from the toxicity check (mostly the fifth day) where no day follows; animals may have died later. Schedule codes are those of the source, taken here to give the interval after Q, in days (D) or hours (H), and the number of doses after X. Some schedule codes hold Z or #, which are not explained here. Where survival is the endpoint, the PubChem record calls one and a half times the control and up active, and a quarter to a half above the control has no call in these data; cut-offs in other NCI protocols can differ. Some entries were tested several times; their values stand side by side, smallest first. Counts like (3×) give the number of equal values in this list.

Tested on: L1210 leukemia ip in BDF1 mice, survival T/C
Test: NCI In Vivo Anticancer Drug Screen. Data for tumor model L1210 Leukemia (intraperitoneal) in B6D2F1 (BDF1) mice
Conditions: T/C endpoint: mean survival time, higher T/C = longer survival

With `N=[N+]=CC(=O)OCC(N)C(=O)O` (stereo not given) the T/C (dose: 24.0 mg/kg/injection, schedule: Q03DX006 (ip), vehicle: saline) was 148 % of control, the T/C (dose: 25.0 mg/kg/injection, schedule: Q01DX010 (ip), vehicle: saline) was 97, 107, 123, 132 % of control and the T/C (dose: 26.0 mg/kg/injection, schedule: Q01DX009 (ip), vehicle: saline) was 127 % of control. For the same compound, the T/C (dose: 28.0 mg/kg/injection, schedule: Q01DX001 (ip), vehicle: saline) was 127 % of control, the T/C (dose: 28.0 mg/kg/injection, schedule: Q07DX003 (ip), vehicle: saline) was 132 % of control and the T/C (dose: 28.0 mg/kg/injection, schedule: Q## X004 (ip), vehicle: saline) was 128 % of control. The T/C (dose: 32.0 mg/kg/injection, schedule: Q01DX001 (oral), vehicle: saline) was 136 % of control, the T/C (dose: 32.0 mg/kg/injection, schedule: Q01DX006 (iv), vehicle: saline) was 142 % of control and the T/C (dose: 32.0 mg/kg/injection, schedule: Q01DX009 (ip), vehicle: saline) was 145 % of control. The T/C (dose: 32.0 mg/kg/injection, schedule: Q01DX009 (oral), vehicle: saline, evaluated on day 40) was 141 % of control, the T/C (dose: 32.0 mg/kg/injection, schedule: Q01DX009 (oral), vehicle: saline, evaluated on day 60) was 139 and 140 % of control and the T/C (dose: 32.0 mg/kg/injection, schedule: Q01DX Z (im), vehicle: saline) was 142 % of control. For the same compound, the T/C (dose: 32.0 mg/kg/injection, schedule: Q01DX Z (oral), vehicle: saline) was 137 % of control, the T/C (dose: 32.0 mg/kg/injection, schedule: Q03HX024 (oral), vehicle: saline) was 130 and 134 % of control and the T/C (dose: 32.0 mg/kg/injection, schedule: Q04DX003 (oral), vehicle: saline) was 128 % of control. For the same compound, the T/C (dose: 32.0 mg/kg/injection, schedule: Q## X003 (ip), vehicle: saline) was 135 % of control, the T/C (dose: 32.0 mg/kg/injection, schedule: Q## X008 (ip), vehicle: saline) was 137 % of control and the T/C (dose: 32.0 mg/kg/injection, schedule: Q## X024 (oral), vehicle: saline) was 126 % of control. The T/C (dose: 34.0 mg/kg/injection, schedule: Q02DX010 (ip), vehicle: carboxymethylcellulose (CMC)) was 130 % of control, the T/C (dose: 34.5 mg/kg/injection, schedule: Q02DX010 (ip), vehicle: carboxymethylcellulose (CMC)) was 147, 153, 159, 170, 182 % of control and the T/C (dose: 35.0 mg/kg/injection, schedule: Q02DX010 (ip), vehicle: carboxymethylcellulose (CMC)) was 136 % of control. The T/C (dose: 36.0 mg/kg/injection, schedule: Q02DX010 (ip), vehicle: carboxymethylcellulose (CMC)) was 128, 140, 141, 165 % of control, the T/C (dose: 36.0 mg/kg/injection, schedule: Q02DX010 (ip), vehicle: other) was 137 % of control and the T/C (dose: 40.0 mg/kg/injection, schedule: Q04DX002 (ip), vehicle: saline) was 123, 124, 125, 153 % of control. For the same compound, the T/C (dose: 42.0 mg/kg/injection, schedule: Q## X004 (ip), vehicle: saline) was 144 % of control, the T/C (dose: 43.0 mg/kg/injection, schedule: Q01DX001 (ip), vehicle: saline) was 125 % of control and the T/C (dose: 47.6 mg/kg/injection, schedule: Q02DX010 (ip), vehicle: carboxymethylcellulose (CMC)) was 132 % of control. The T/C (dose: 48.0 mg/kg/injection, schedule: Q03DX006 (ip), vehicle: saline) was 125 % of control, the T/C (dose: 50.0 mg/kg/injection, schedule: Q01DX001 (ip), vehicle: saline) was 126 % of control and the survivor count (dose: 50.0 mg/kg/injection, schedule: Q01DX010 (ip), vehicle: saline) was 2 of 6. For the same compound, the T/C (dose: 51.75 mg/kg/injection, schedule: Q02DX010 (ip), vehicle: carboxymethylcellulose (CMC)) was 112, 117 (2×), 118, 124 % of control, the T/C (dose: 52.0 mg/kg/injection, schedule: Q02DX010 (ip), vehicle: carboxymethylcellulose (CMC)) was 128 % of control and the T/C (dose: 54.0 mg/kg/injection, schedule: Q02DX010 (ip), vehicle: carboxymethylcellulose (CMC)) was 89, 109, 111, 132 % of control. For the same compound, the T/C (dose: 56.0 mg/kg/injection, schedule: Q01DX001 (ip), vehicle: saline) was 125 % of control, the T/C (dose: 56.0 mg/kg/injection, schedule: Q07DX003 (ip), vehicle: saline) was 149 % of control and the T/C (dose: 63.0 mg/kg/injection, schedule: Q## X004 (ip), vehicle: saline) was 130 % of control. The survivor count (dose: 64.0 mg/kg/injection, schedule: Q01DX006 (iv), vehicle: saline) was 6 of 6, the T/C (dose: 64.0 mg/kg/injection, schedule: Q01DX009 (oral), vehicle: saline, evaluated on day 40) was 125 % of control and the T/C (dose: 64.0 mg/kg/injection, schedule: Q01DX009 (oral), vehicle: saline, evaluated on day 60) was 133 % of control. For the same compound, the survivor count (dose: 64.0 mg/kg/injection, schedule: Q01DX009 (oral), vehicle: saline) was 5 of 8, the survivor count (dose: 64.0 mg/kg/injection, schedule: Q01DX Z (im), vehicle: saline) was 4 of 6 and the survivor count (dose: 64.0 mg/kg/injection, schedule: Q01DX Z (ip), vehicle: saline) was 1 of 6. For the same compound, the survivor count (dose: 64.0 mg/kg/injection, schedule: Q01DX Z (oral), vehicle: saline) was 5 of 6, the survivor count (dose: 64.0 mg/kg/injection, schedule: Q01DX Z (sc), vehicle: saline) was 6 of 6 and the T/C (dose: 64.0 mg/kg/injection, schedule: Q## X003 (ip), vehicle: saline) was 133 % of control.
